Measurements as given in PMC11005415.
Results are given in words; binding and its absence hold for the method and conditions named. In cells and extracts the contact can be indirect. These calls come from enrichment with a bait or labelling near it, and not all partners need be listed. Tags and fused reporters may be left off the sequences shown.

Biological target: T1, Cactin-V5 (Drosophila melanogaster) (UniProt Q9VR99)
T1 sequence: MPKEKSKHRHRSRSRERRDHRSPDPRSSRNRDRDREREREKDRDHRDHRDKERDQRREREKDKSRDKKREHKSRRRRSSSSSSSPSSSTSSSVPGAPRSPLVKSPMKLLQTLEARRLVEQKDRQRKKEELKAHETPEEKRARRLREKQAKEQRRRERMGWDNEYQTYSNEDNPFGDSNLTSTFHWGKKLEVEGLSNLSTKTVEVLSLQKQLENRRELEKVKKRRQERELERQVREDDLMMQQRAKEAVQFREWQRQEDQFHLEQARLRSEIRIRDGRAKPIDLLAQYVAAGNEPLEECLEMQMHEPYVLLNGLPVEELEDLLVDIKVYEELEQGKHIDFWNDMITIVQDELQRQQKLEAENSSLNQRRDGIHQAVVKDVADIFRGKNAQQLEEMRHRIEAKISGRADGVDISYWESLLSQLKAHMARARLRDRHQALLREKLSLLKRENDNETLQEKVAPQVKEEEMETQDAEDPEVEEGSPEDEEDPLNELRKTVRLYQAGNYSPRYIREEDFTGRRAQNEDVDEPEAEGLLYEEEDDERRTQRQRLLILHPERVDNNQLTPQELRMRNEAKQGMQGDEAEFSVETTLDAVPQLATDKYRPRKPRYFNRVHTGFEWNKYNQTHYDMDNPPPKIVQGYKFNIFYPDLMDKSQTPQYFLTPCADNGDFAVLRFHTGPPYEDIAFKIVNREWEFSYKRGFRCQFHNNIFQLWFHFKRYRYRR
Experiment: affinity purification with mass spectrometry; anti-V5 immunoprecipitation of the Cactin-protein complex from S2 cells overexpressing Cactin-V5, with or without DCV infection; enriched 50-kDa band identified by mass spectrometry

binding: binds
B1: phosphoglycerate kinase (PGK), endogenous (enzyme, UniProt Q01604 1-415)
chain: MAFNKLSIENLDLAGKRVLMRVDFNVPIKEGKITSNQRIVAALDSIKLALSKKAKSVVLMSHLGRPDGNKNIKYTLAPVAAELKTLLGQDVIFLSDCVGSEVEAACKDPAPGSVILLENVRFYVEEEGKGLDASGGKVKADPAKVKEFRASLAKLGDVYVNDAFGTAHRAHSSMMGDGFEQRAAGLLLNKELKYFSQALDKPPNPFLAILGGAKVADKIQLIENLLDKVNEMIIGGGMAFTFLKVLNNMKIGGSLFDEEGSKIVEKLVEKAKKNNVQLHLPVDFVCGDKFAENAAVSEATVEAGIPDGHMGLDVGPKTRELFAAPIARAKLIVWNGPPGVFEFPNFANGTKSIMDGVVAATKNGTVSIIGGGDTASCCAKWNTEALVSHVSTGGGASLELLEGKTLPGVAALTSA
